Among the data in the supplement of paper PMC6411743 are NP40-soluble protein abundance values, retold here.

Amino acid sequences for entries named in this document (tags omitted). A change or cut given only in a name is not applied to a line headed by its entry.
UniProt Q8NFZ8: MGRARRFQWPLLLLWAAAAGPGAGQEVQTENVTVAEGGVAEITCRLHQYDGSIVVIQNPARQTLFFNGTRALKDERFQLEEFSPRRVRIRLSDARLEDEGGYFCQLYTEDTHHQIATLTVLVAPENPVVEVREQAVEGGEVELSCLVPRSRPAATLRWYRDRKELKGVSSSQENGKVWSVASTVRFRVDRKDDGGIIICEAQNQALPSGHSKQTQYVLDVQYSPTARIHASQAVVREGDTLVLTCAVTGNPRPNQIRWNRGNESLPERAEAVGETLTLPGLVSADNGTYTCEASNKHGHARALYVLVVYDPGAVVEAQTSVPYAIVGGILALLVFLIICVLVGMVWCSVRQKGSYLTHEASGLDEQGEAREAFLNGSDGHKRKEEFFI
UniProt Q8N2W9: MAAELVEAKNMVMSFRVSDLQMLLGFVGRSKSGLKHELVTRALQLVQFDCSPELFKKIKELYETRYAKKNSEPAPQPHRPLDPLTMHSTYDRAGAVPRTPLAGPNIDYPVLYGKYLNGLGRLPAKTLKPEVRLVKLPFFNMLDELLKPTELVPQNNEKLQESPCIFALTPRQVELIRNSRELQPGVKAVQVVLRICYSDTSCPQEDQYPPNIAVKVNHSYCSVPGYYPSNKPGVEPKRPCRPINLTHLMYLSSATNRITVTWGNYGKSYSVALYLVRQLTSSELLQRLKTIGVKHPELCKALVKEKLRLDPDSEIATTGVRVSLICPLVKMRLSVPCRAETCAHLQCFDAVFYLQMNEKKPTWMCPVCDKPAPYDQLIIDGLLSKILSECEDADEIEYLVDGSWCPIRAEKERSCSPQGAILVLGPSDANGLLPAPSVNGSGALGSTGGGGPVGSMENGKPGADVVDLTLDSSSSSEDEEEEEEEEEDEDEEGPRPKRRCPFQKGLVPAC
UniProt Q8N122, whole entry: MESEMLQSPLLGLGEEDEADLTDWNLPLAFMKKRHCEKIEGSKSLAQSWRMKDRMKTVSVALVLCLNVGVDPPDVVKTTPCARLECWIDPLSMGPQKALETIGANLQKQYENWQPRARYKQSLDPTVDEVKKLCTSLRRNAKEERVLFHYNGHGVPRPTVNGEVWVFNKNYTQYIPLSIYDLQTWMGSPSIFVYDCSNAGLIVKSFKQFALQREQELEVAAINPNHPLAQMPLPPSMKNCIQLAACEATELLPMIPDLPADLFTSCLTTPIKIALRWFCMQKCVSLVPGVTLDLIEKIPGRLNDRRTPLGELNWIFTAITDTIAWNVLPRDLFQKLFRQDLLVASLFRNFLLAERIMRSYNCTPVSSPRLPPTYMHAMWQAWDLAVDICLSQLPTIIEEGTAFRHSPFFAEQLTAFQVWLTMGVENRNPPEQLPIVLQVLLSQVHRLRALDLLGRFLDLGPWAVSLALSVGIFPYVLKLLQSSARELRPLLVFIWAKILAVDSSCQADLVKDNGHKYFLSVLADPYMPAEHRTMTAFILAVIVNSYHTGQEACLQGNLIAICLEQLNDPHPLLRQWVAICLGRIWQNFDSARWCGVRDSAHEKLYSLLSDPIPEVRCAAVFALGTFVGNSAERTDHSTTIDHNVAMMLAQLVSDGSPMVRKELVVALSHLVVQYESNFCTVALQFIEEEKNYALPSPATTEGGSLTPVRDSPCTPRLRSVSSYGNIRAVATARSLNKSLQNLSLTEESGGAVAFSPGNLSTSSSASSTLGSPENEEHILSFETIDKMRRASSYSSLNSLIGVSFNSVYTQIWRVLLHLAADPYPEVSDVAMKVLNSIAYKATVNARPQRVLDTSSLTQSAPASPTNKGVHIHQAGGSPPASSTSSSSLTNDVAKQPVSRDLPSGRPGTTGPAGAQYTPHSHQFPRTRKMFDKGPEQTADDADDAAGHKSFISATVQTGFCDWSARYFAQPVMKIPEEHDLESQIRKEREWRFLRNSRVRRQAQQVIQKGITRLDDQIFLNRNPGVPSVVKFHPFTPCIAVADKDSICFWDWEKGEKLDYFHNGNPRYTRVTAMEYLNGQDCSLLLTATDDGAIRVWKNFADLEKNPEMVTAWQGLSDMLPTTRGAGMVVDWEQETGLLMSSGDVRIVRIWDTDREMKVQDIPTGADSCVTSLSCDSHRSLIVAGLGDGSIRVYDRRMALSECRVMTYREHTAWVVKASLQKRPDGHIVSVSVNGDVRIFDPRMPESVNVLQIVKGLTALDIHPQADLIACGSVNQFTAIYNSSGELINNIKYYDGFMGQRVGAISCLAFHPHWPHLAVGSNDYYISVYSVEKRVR
UniProt Q8N9M1: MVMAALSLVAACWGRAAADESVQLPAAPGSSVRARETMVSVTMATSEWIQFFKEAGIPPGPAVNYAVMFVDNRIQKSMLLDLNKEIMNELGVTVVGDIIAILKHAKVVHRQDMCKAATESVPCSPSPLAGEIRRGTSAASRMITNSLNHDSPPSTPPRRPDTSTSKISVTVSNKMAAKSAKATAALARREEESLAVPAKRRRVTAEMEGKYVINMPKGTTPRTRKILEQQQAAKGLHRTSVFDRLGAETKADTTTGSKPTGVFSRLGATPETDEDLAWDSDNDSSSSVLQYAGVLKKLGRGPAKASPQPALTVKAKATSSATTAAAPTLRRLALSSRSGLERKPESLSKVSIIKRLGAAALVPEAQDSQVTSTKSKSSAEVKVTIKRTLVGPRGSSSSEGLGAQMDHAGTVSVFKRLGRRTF
UniProt Q8N3C7: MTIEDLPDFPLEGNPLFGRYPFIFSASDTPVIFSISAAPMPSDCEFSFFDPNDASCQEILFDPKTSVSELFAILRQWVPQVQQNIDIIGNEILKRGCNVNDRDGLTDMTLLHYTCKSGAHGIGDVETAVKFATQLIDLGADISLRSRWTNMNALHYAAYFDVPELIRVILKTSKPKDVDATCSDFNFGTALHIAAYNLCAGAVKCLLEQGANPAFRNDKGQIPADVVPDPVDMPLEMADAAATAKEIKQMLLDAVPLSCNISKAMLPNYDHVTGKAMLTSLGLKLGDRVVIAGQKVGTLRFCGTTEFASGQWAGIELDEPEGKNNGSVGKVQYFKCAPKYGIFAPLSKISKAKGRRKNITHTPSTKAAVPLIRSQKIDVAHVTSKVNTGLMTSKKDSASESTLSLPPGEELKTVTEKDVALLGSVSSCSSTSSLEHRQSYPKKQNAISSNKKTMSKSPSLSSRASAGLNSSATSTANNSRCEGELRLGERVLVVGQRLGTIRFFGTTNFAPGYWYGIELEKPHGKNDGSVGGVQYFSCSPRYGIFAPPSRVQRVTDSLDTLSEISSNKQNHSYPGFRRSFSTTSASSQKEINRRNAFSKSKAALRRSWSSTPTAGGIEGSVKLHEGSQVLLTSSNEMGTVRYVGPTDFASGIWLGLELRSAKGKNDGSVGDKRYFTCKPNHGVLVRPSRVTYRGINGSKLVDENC
UniProt Q8NB46: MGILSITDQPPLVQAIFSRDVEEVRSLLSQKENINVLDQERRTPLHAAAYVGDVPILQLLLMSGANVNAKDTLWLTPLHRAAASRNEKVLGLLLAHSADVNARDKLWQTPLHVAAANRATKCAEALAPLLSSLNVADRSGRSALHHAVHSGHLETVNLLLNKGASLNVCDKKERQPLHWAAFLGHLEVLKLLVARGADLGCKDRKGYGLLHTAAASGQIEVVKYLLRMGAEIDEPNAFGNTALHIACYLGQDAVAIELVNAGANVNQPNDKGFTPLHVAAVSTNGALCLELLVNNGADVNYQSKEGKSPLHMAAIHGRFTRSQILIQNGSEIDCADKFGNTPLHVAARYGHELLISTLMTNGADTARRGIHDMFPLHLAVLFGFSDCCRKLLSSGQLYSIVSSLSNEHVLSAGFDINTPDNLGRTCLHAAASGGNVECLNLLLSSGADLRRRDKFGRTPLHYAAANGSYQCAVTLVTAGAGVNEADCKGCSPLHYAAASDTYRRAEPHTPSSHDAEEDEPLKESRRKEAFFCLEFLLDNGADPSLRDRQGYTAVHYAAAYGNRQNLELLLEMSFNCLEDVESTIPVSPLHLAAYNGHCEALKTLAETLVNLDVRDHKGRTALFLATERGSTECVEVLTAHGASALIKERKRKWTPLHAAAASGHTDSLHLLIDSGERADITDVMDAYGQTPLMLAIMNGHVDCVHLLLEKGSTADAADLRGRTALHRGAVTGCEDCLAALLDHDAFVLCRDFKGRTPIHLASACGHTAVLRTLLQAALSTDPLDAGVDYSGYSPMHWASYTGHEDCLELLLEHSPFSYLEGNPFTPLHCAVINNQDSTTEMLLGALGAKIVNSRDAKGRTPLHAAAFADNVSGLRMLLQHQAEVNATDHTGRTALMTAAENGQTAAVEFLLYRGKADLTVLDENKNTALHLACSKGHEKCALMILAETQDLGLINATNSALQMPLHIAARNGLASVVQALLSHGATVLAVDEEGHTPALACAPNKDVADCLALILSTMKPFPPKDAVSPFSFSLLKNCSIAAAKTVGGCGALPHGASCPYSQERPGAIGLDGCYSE
UniProt Q8IW41: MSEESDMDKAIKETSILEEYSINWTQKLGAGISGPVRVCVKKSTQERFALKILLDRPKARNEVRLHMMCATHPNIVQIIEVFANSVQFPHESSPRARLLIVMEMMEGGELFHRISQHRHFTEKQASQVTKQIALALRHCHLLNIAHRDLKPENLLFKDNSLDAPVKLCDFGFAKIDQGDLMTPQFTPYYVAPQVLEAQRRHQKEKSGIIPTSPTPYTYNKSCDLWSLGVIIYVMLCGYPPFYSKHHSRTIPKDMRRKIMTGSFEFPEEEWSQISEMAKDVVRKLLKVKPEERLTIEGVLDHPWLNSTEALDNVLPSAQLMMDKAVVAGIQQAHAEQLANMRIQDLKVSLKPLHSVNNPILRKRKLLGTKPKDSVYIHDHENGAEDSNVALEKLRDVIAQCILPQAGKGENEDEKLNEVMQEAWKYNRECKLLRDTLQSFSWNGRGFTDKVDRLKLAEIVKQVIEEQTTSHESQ
UniProt Q8N128: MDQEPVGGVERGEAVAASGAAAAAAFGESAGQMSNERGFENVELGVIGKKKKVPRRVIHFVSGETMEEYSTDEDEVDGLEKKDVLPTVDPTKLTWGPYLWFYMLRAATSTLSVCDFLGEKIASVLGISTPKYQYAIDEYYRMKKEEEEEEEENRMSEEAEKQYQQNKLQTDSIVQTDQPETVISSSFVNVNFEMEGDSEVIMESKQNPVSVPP
UniProt Q8N335: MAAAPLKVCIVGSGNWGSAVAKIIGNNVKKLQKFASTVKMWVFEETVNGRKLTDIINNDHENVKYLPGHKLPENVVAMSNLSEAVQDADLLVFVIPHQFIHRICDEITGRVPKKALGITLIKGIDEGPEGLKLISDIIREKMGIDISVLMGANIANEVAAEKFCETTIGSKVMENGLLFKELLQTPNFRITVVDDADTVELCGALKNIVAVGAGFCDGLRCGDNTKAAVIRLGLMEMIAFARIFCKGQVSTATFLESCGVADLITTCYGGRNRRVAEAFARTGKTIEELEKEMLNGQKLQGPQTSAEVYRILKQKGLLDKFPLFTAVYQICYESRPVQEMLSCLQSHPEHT
UniProt Q8N584: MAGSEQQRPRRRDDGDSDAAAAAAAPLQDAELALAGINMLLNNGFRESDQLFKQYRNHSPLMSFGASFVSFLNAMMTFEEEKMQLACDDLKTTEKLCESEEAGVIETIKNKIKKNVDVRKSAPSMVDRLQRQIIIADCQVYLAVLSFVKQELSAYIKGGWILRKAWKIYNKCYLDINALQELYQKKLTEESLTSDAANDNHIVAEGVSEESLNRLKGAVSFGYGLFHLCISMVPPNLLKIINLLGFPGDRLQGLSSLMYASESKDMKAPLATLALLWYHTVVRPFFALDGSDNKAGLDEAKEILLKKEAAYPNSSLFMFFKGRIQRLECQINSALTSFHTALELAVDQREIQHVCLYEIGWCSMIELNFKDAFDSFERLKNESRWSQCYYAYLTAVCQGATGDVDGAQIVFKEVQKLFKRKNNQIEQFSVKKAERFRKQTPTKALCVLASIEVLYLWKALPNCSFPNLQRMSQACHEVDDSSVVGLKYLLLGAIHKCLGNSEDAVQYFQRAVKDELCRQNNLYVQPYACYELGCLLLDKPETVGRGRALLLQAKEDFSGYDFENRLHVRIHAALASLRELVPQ
UniProt Q8ND56: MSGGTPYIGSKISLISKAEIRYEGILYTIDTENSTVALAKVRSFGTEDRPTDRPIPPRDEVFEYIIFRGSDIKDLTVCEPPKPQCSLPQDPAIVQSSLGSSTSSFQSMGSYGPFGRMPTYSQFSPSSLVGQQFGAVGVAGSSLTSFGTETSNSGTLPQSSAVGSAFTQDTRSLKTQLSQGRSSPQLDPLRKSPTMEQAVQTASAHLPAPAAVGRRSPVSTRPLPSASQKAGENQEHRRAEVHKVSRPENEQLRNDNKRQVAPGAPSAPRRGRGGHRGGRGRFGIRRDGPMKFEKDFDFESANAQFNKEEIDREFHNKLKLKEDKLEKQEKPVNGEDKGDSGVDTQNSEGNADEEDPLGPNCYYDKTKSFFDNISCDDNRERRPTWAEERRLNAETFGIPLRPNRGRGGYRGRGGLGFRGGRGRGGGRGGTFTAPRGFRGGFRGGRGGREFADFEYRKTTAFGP

± gives the standard deviation of the averaged measurements. Only a part is listed here, and it is no random draw.

Compound in this experiment: Nc1ncnc2c1ncn2[C@@H]1O[C@H](COP(=O)(O)OP(=O)(O)OP(=O)(O)O)[C@@H](O)[C@H]1O [adenosine triphosphate]
The experiment can be described thus: NP40-soluble protein abundance relative to vehicle (solubility fold change) (ratio); higher = more soluble protein in presence of ATP. The gist of the method: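 Eight concentrations, 0.1 to 10 mM, were tested on Jurkat crude lysate for 10 min at room temperature and then 3 min at 37 °C, in three independent experiments. The lysate was solubilised with 0.8% NP40 and benzonase, ultracentrifuged, and the supernatant TMT-labelled for LC-MS/MS. Each value is the fold change against the detergent-processed vehicle in its own replicate, from vsn-normalised intensities.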

As to CADM4 (UniProt Q8NFZ8), the NP40-soluble protein abundance reads like this: (concentration: 1mM) 1.15 ± 0.11; (concentration: 2mM) 1.13 ± 0.033; (concentration: 4mM) 1.2 ± 0.045; (concentration: 6mM) 1.22 ± 0.12; (concentration: 8mM) 1.1 ± 0.071; (concentration: 10mM) 1.12 ± 0.21.

As to PIAS4 (UniProt Q8N2W9), the NP40-soluble protein abundance by setting is: (concentration: 1mM) 0.933 ± 0.067; (concentration: 2mM) 0.969 ± 0.051; (concentration: 4mM) 0.997 ± 0.076; (concentration: 6mM) 0.934 ± 0.032; (concentration: 8mM) 0.971 ± 0.084; (concentration: 10mM) 0.954 ± 0.066.

UniProt Q8N122 and related entries: the NP40-soluble protein abundance (concentration: 1mM) came to 1 ± 0.035; the NP40-soluble protein abundance (concentration: 2mM) stood at 1 ± 0.071; the NP40-soluble protein abundance (concentration: 4mM) amounted to 1.03 ± 0.027; the NP40-soluble protein abundance (concentration: 6mM) is 0.987 ± 0.049; the NP40-soluble protein abundance (concentration: 8mM) came to 1.01 ± 0.021; the NP40-soluble protein abundance (concentration: 10mM) is 0.994 ± 0.01.

Regarding UniProt Q8N9M1 and related entries, the NP40-soluble protein abundance was 0.942 ± 0.054 (concentration: 1mM); 0.922 ± 0.017 (concentration: 2mM); 0.982 ± 0.052 (concentration: 4mM); 0.99 ± 0.062 (concentration: 6mM); 1 ± 0.067 (concentration: 8mM); 1.11 ± 0.12 (concentration: 10mM).

Turning to CLIP4 (UniProt Q8N3C7), the NP40-soluble protein abundance stood at 1.19 ± 0.031 (concentration: 1mM); 1.22 ± 0.14 (concentration: 2mM); 1.35 ± 0.12 (concentration: 4mM); 1.27 ± 0.091 (concentration: 6mM); 1.31 ± 0.13 (concentration: 8mM); 1.32 ± 0.14 (concentration: 10mM).

For the target UniProt Q8N9R8 and related entries, the NP40-soluble protein abundance reads like this: (concentration: 1mM) 1.02 ± 0.11; (concentration: 2mM) 1.06 ± 0.11; (concentration: 4mM) 1.11 ± 0.056; (concentration: 6mM) 0.98 ± 0.096; (concentration: 8mM) 1.06 ± 0.035; (concentration: 10mM) 1.04 ± 0.048.

As to ANKRD52 (UniProt Q8NB46), the NP40-soluble protein abundance came to 1.04 ± 0.11 (concentration: 1mM); 0.963 ± 0.079 (concentration: 2mM); 1.02 ± 0.032 (concentration: 4mM); 0.948 ± 0.049 (concentration: 6mM); 1.02 ± 0.1 (concentration: 8mM); 1 ± 0.074 (concentration: 10mM).

Regarding UniProt Q8NE86 and related entries, the NP40-soluble protein abundance came out at 1.06 ± 0.084 (concentration: 1mM); 1.09 ± 0.12 (concentration: 2mM); 1.05 ± 0.094 (concentration: 4mM); 0.99 ± 0.085 (concentration: 6mM); 1.06 ± 0.049 (concentration: 8mM); 1.04 ± 0.083 (concentration: 10mM).

For “UniProt Q8NCE2-2|Q8NCE2 and related entries”, the NP40-soluble protein abundance was found to be 0.995 ± 0.028 (concentration: 1mM); 1.01 ± 0.041 (concentration: 2mM); 0.995 ± 0.011 (concentration: 4mM); 0.982 ± 0.095 (concentration: 6mM); 0.97 ± 0.024 (concentration: 8mM); 0.985 ± 0.039 (concentration: 10mM).

For UniProt Q8IW41 and related entries, the NP40-soluble protein abundance by setting is: (concentration: 1mM) 1.06 ± 0.087; (concentration: 2mM) 1.07 ± 0.089; (concentration: 4mM) 1.03 ± 0.051; (concentration: 6mM) 0.909 ± 0.097; (concentration: 8mM) 0.998 ± 0.022; (concentration: 10mM) 1.03 ± 0.061.

Take UniProt Q8N128 and related entries: the NP40-soluble protein abundance reads like this: (concentration: 1mM) 0.921 ± 0.032; (concentration: 2mM) 0.938 ± 0.039; (concentration: 4mM) 0.938 ± 0.036; (concentration: 6mM) 0.907 ± 0.033; (concentration: 8mM) 0.885 ± 0.041; (concentration: 10mM) 0.897 ± 0.054.

GPD1L (UniProt Q8N335): the NP40-soluble protein abundance (concentration: 1mM) was found to be 0.927 ± 0.031; the NP40-soluble protein abundance (concentration: 2mM) came out at 0.95 ± 0.049; the NP40-soluble protein abundance (concentration: 4mM) was found to be 0.939 ± 0.045; the NP40-soluble protein abundance (concentration: 6mM) came out at 0.932 ± 0.066; the NP40-soluble protein abundance (concentration: 8mM) is 0.91 ± 0.035; the NP40-soluble protein abundance (concentration: 10mM) is 0.935 ± 0.054.

On to TTC39C (UniProt Q8N584), for which the NP40-soluble protein abundance runs as follows: (concentration: 1mM) 1.04 ± 0.024; (concentration: 2mM) 1.04 ± 0.022; (concentration: 4mM) 1.01 ± 0.054; (concentration: 6mM) 1.04 ± 0.076; (concentration: 8mM) 1.03 ± 0.062; (concentration: 10mM) 1 ± 0.055.

As for FAM126B (UniProt Q8IXS8), the NP40-soluble protein abundance reads like this: (concentration: 1mM) 0.973 ± 0.04; (concentration: 2mM) 0.925 ± 0.046; (concentration: 4mM) 0.942 ± 0.045; (concentration: 6mM) 1.02 ± 0.069; (concentration: 8mM) 0.9553 ± 0.0077; (concentration: 10mM) 0.976 ± 0.034.

Regarding TRIM22 (UniProt Q8IYM9), the NP40-soluble protein abundance is 0.977 ± 0.074 (concentration: 1mM); 0.995 ± 0.031 (concentration: 2mM); 1.01 ± 0.099 (concentration: 4mM); 1.05 ± 0.026 (concentration: 6mM); 1.04 ± 0.021 (concentration: 8mM); 0.964 ± 0.069 (concentration: 10mM).

For UniProt Q8IXI2-2|Q8IXI2-3, the NP40-soluble protein abundance is, setting by setting: (concentration: 1mM) 0.952 ± 0.014; (concentration: 2mM) 0.99 ± 0.06; (concentration: 4mM) 0.981 ± 0.016; (concentration: 6mM) 0.931 ± 0.027; (concentration: 8mM) 1 ± 0.056; (concentration: 10mM) 0.998 ± 0.074.

Regarding UniProt Q8ND56 and related entries, the NP40-soluble protein abundance turned out to be 0.964 ± 0.079 (concentration: 1mM); 0.96 ± 0.034 (concentration: 2mM); 0.952 ± 0.036 (concentration: 4mM); 1.01 ± 0.051 (concentration: 6mM); 0.964 ± 0.035 (concentration: 8mM); 0.967 ± 0.025 (concentration: 10mM).
